One assay has as its target ROR1 Kringle fragment (UniProt Q01973). The experiment in a line: Superdex 200 SEC of the complex with the Kringle fragment.
The target in the next assay is T1, soluble ROR1 ectodomain (UniProt Q01973 30-406).
T1 construct: extracellular domain; also called ROR1-A647
The experiment in a line: size exclusion chromatography of the complex. In general terms: Size exclusion chromatography separates by hydrodynamic size, large species first.

Protein sequences, listed by entry. Tags and fused reporters are not part of them. Residues count along the entry.
soluble ROR1 ectodomain (Q01973, residues 30-406): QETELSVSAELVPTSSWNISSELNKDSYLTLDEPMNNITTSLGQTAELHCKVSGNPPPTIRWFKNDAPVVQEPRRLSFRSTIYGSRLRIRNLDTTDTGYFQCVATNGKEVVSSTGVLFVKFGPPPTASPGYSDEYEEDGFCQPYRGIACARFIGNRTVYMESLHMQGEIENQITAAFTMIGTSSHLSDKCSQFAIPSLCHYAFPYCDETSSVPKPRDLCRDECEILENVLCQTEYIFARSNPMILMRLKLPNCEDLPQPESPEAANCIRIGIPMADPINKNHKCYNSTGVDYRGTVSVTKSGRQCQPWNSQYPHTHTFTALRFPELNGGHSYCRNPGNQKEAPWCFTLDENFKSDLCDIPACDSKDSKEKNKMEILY
ROR1 Kringle fragment (Q01973, residues 312-391): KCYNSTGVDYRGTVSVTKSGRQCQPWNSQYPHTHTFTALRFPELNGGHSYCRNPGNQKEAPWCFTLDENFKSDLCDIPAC

These results are taken from patent US20240025996A1 (FRED HUTCHINSON CANCER CENTER, published 2024).

No constants are given. Whether binding was seen depends on the method and setting. Some entries that bind do so weakly or less than the wild type.

B1: Nb14 WT (VHH)
VHH: QVKLVQSGGGLVQTGGSLRLSCAASEITFDMYSMGWYREAPGKARDAVASITNRGNTYYADSVKGRFTISRDNAKKTMYLQMNSLKPEDTAVYYCNVYRTGFSDYWGQGTQVTVSS
notes: also called free Nb14
As for B1, the binding result in the assay with ROR1 Kringle fragment and in the assay with soluble ROR1 ectodomain was “binds” in each case.

B2: Nb11 WT (VHH)
VHH: QVKLVQSGGGLVQAGGSLRLSCAASGSIFSSASMGWYRQAPGKPREQVASITRDGNTYYEDDVKGRFTISRDNARSTGYLQMNSLTPEDTGVYYCNVYQLGFYDKWGQGTQVIVSS
notes: also called free Nb11
In the case of B2, the binding entry with ROR1 Kringle fragment and in the assay with soluble ROR1 ectodomain was “binds” throughout.
